Test results taken from publication doi:10.1101/215962.
Results are given in words; binding and its absence hold for the method and conditions named. In cells and extracts the contact can be indirect. Here binding means that the protein was enriched with, or labelled near, the bait; the list need not be complete.

Sequences of proteins named here, by UniProt entry; tags and fusion partners are left off. A change or cut given only in a name is not applied to a line headed by its entry.
UniProt Q9Y812: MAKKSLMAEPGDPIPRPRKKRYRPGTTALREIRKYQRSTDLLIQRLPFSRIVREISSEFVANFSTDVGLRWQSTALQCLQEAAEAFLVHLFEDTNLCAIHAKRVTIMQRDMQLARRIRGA
UniProt P48003: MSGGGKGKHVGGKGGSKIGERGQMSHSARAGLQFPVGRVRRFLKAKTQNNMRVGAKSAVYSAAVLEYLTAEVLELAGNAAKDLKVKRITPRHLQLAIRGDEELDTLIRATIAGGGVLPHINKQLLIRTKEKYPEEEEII
UniProt O14148: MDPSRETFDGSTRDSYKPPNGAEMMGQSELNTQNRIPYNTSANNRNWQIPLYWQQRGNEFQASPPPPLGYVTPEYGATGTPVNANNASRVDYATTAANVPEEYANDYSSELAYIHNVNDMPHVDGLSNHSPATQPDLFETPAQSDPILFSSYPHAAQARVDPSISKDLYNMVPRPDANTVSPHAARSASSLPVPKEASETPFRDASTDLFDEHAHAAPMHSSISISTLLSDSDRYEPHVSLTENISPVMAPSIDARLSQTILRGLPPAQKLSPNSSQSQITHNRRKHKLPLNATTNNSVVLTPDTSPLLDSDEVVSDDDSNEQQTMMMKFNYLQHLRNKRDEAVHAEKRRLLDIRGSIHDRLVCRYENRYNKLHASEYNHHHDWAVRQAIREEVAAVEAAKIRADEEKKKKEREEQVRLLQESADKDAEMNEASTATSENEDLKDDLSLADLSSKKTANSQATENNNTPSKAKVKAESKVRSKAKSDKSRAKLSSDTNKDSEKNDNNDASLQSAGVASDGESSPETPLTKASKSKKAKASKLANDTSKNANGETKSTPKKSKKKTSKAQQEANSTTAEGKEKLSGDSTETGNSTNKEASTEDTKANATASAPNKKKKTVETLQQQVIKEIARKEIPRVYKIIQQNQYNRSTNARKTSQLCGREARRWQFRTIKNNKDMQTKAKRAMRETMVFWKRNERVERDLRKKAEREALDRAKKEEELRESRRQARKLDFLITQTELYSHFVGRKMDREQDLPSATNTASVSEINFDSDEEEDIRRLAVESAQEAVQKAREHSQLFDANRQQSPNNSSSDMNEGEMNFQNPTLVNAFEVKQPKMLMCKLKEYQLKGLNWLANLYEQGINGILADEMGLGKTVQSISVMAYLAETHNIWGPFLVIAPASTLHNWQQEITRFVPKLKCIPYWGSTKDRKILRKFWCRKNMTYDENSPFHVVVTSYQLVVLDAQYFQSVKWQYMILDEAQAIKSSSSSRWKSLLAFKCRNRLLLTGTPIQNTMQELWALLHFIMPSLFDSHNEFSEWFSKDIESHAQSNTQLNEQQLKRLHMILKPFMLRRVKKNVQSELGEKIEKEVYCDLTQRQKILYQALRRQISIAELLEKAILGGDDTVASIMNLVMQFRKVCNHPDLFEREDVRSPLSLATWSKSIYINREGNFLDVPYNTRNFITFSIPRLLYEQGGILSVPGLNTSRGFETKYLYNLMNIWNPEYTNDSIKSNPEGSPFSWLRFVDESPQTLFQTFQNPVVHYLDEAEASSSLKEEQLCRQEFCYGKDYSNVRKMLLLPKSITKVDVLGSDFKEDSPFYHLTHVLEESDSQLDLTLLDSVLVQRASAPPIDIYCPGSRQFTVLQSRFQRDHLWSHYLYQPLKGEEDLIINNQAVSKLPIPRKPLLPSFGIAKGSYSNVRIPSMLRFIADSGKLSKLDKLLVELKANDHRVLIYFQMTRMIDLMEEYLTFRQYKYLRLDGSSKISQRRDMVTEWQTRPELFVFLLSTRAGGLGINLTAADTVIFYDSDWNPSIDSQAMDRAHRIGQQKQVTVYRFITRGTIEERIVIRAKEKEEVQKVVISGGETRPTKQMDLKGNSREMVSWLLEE
UniProt Q9US25: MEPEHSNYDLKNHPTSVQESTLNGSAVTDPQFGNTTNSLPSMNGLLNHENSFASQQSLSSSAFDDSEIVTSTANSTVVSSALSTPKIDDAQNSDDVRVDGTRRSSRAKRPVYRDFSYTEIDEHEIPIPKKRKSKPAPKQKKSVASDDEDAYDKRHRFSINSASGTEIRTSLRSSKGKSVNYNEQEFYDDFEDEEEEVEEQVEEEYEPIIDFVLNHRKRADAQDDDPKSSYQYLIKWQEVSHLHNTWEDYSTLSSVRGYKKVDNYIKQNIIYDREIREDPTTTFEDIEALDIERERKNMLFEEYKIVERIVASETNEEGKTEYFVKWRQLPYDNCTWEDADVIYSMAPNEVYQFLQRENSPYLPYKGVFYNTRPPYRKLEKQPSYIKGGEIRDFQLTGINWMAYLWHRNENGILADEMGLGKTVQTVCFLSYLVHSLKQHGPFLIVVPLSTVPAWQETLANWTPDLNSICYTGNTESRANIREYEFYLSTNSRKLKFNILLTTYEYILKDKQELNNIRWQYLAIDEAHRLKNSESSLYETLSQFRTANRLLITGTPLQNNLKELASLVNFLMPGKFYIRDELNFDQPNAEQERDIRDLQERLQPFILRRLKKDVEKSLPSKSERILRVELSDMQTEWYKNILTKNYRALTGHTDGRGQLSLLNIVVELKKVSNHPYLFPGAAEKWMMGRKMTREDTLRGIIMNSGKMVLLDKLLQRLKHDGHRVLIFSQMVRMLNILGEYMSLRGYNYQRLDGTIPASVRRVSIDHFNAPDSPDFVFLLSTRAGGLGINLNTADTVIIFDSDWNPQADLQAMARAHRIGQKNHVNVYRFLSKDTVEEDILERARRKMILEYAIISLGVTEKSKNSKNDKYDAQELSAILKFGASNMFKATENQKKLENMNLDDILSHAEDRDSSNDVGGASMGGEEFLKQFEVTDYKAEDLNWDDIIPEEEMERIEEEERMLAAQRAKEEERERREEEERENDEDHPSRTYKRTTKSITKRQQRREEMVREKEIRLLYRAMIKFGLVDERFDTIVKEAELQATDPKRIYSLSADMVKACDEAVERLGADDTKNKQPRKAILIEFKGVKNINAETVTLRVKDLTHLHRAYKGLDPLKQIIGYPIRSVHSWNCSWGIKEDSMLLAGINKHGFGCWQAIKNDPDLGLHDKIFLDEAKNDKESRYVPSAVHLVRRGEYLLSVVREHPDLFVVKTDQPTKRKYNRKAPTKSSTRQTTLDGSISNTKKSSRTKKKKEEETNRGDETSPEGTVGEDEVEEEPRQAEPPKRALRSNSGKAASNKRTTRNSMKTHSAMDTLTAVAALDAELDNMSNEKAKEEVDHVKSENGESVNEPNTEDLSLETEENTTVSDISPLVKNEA

B1: Sim3^NASP (protein, UniProt Q9USQ4 1-396)
chain: MSSDTKTLENSKGNSATDADTKNPSSSDSRAIEQLVTQGNMAYAQKNYEEAVDKYGQALMQSESIHGSESLENRNVLWLYGKSLFQIAIENSQVLGNALGAKESVSQATESFEEPEAIGSFTFSGQKIENKYTVNEENSSIAHPEKESEEKETNEASPASEEDEDDFNVAWEVLDLTRVMQSKAVDAYPDSKDEKIRLADIYDLLGELSLEIENFSQASQDLKTALEWKEKVYNVSNNTLLSEAHYKLALALEFTNPEDPSNKSRACEHVEKAAEILKNVLNERENEVTDKKGKGKQKAEESTLTSDLENLREMLSELEQKTLDLKHGAPSLEEAVMSKMHESSLLSKDSSSLAQAVAEAVKNANDLGGLVKRKRTKQEVTSSSQKEGPKDKKKKD
B2: Cnp3^CENP-C (protein, UniProt Q9USR9 1-643)
chain: MTMNETSAIPARQRENQFFEIGVVGRKTGFTVPRDVKKGDDGFEDMDAYFLSDGSIHLDEDNGDIEQDMPPVTRLQPTSPMAVNAASDEASHASSSDSSDKNPDIPSSPLLMNSRALRASRGSSGPLIVPIDHSAFQAEDEGTADKTKVDGNKLSIQPRKANRIVDFSRIKASPDRKKFEPRRSTELPSKIPSSTPKDDNVQESPAFPDENITALQKNVANFTSIKDSGGRDNLYIQTISKPRRSYVQNNKSEQTIKPSKQNKQKEEKKTISQGNKPNSRDEDSELSIDVPLSMLNRSLANNSQKNKKRTPNKPLQESSINSVKEGESNPVVKRKRGRPRKNKLEIGNSVQTSEATQVKGAKKPAIRNAKKMSNEKDDSLNSQSDSASGEFIKTIARNNLQEIKQVEREDTLVGVRRSKRTRIAPLAFWKNERVVYELHRDENRIPALPEVKQIIRVDDPSPSIRQGRKKRHAKRSGVEIKSNLEAKSNDVEEYDAFYKDEINCEVLSWNEQNPKASEERVVGYSLPSVNLQQISNQQLKFASLFKEEPSFAAGVVEMPAGAEKPVKPSKHNIMSFCILQGKIEVTVNATTFRMKKDGVFIVPRGNYYSIKNIGKEAVRLYYTHATDTLENKRRGIGDFPNER

Target: GFP-CENP-A^Cnp1 (S. pombe) (UniProt Q9Y812)
Assay: affinity purification with mass spectrometry

binding, binds:
histone variant H2A.Z (encoded by the pht1+ gene in S. pombe) (from UniProt P48003 1-139), Ino80 (from UniProt O14148 1-1604), Hrp1^Chd1 (from UniProt Q9US25 1-1373), B1, B2
